In this assay the test system is P388 leukemia ip, CD2F1 mice, survival T/C. The assay is described as follows: NCI In Vivo Anticancer Drug Screen. Data for tumor model P388 Leukemia (intraperitoneal) in CD2F1 (CDF1) mice. The note with it: T/C endpoint: median survival time, higher T/C = longer survival.
The mark [1] stands for this setting: dose: 50.0 mg/kg/injection, schedule: Q01DX009 (ip), vehicle: Klucel (hydroxypropylcellulose) (HPC).
[2] abbreviates: dose: 100.0 mg/kg/injection, schedule: Q01DX009 (ip), vehicle: Klucel (hydroxypropylcellulose) (HPC).
Where [3] appears, read: dose: 200.0 mg/kg/injection, schedule: Q01DX009 (ip), vehicle: Klucel (hydroxypropylcellulose) (HPC).
Where [4] appears, read: dose: 400.0 mg/kg/injection, schedule: Q01DX009 (ip), vehicle: Klucel (hydroxypropylcellulose) (HPC).

The list does not hold the whole screen: it gathers tests that were run many times, whatever their T/C, doses with no T/C, and many T/C values between a quarter and a half above the control. Further doses and runs are listed elsewhere. T/C: endpoint of the treated group in % of that of the vehicle group. Some doses have a count of surviving animals in place of a T/C: the source files T/C as zero there, which appears to mark a toxic dose or a test without result, not a measured value. Some doses without a T/C left all or most animals alive at the check, yet need not have been tolerated: the source hardly ever lists a survival T/C far under the control, and the zero likely stands for such cases as well. Survivors were counted at the toxicity check, usually on the fifth day, unless a day is given; later deaths do not show. Schedules are NCI's codes, taken here to give the interval after Q, in days (D) or hours (H), and the number of doses after X. Signs of the kind (2×) stand for listed records that agree. Some entries were tested several times; their values stand side by side, smallest first. For survival time, this PubChem deposit counts one and a half times the control or more as active, and values a quarter to a half above the control carry no call in these data; other NCI protocols may use other cut-offs. Some T/C values are followed by the survivors on the day toxicity was checked, most often the fifth; where none is given, no animal had died by that day.

As to `O=c1cnn(C2OC(CO)C(O)C2O)c(=O)[nH]1` (stereo not given), the T/C reads like this: (dose: 50.0 mg/kg/injection, schedule: Q01DX001 (ip), vehicle: Klucel (hydroxypropylcellulose) (HPC), evaluated on day 30) 90, 96, 97, 98, 100 (6×), 101 (2×), 102, 103, 105 (2×), 106 (2×), 107, 108 (2×), 110, 111, 115, 115 [2 of 3 alive], 118, 121, 126, 129 % of control; (dose: 50.0 mg/kg/injection, schedule: Q01DX001 (ip), vehicle: Klucel (hydroxypropylcellulose) (HPC), evaluated on day 35) 103 % of control; (dose: 50.0 mg/kg/injection, schedule: Q01DX005 (ip), vehicle: Klucel (hydroxypropylcellulose) (HPC), evaluated on day 30) 99 (2×), 101 (2×), 102 (2×), 103 (2×), 104 (2×), 106 (3×), 108, 109 (2×), 110, 111 (2×), 112 (4×), 113, 113 [2 of 3 alive], 114 (4×), 115 (2×), 120 % of control (2×); (dose: 50.0 mg/kg/injection, schedule: Q01DX005 (ip), vehicle: Klucel (hydroxypropylcellulose) (HPC), evaluated on day 35) 110 % of control; under setting [1], 95, 96, 101 (2×), 103 (2×), 104, 105, 106 (2×), 107 (2×), 108, 109 (2×), 110, 111, 112, 113 (2×), 115, 115 [2 of 3 alive], 116, 117, 118 (2×), 120 (2×), 121, 122, 125, 126 (2×), 130 % of control; (dose: 50.0 mg/kg/injection, schedule: Q04DX002 (ip), vehicle: Klucel (hydroxypropylcellulose) (HPC)) 86, 88, 91 [5 of 6 alive], 96 (2×), 97, 99 (2×), 100, 101 (3×), 102 (2×), 103, 104, 105 (2×), 106 (3×), 109 (5×), 110 (2×), 112 (2×), 113, 116 (2×), 123, 134 % of control. Moreover, the T/C runs as follows: (dose: 50.0 mg/kg/injection, schedule: Q04DX003 (ip), vehicle: Klucel (hydroxypropylcellulose) (HPC), evaluated on day 30) 90, 92, 95, 96, 99, 100, 101, 103 (3×), 105 (2×), 106 (4×), 107 (4×), 108 (2×), 109 (2×), 109 [3 of 4 alive], 111, 112, 113, 114 (3×), 119, 122, 123, 126 % of control; (dose: 50.0 mg/kg/injection, schedule: Q04DX003 (ip), vehicle: Klucel (hydroxypropylcellulose) (HPC), evaluated on day 35) 120 % of control; (dose: 100.0 mg/kg/injection, schedule: Q01DX001 (ip), vehicle: Klucel (hydroxypropylcellulose) (HPC), evaluated on day 30) 91, 92, 97 (2×), 99, 100 (2×), 101 (3×), 102, 103 (3×), 105 (2×), 106 (4×), 107 (3×), 108 (3×), 110, 111, 113 % of control; (dose: 100.0 mg/kg/injection, schedule: Q01DX001 (ip), vehicle: Klucel (hydroxypropylcellulose) (HPC), evaluated on day 35) 104 % of control [5 of 6 alive]; (dose: 100.0 mg/kg/injection, schedule: Q01DX005 (ip), vehicle: Klucel (hydroxypropylcellulose) (HPC), evaluated on day 30) 91, 92, 101, 104, 104 [5 of 6 alive], 105, 106 (2×), 108, 109 (3×), 110, 111, 113 (3×), 114 (2×), 115 (3×), 116 (2×), 117 (3×), 118 (2×), 119, 120 (3×), 129 % of control; (dose: 100.0 mg/kg/injection, schedule: Q01DX005 (ip), vehicle: Klucel (hydroxypropylcellulose) (HPC), evaluated on day 35) 125 % of control. Also, the T/C was 87, 100, 101, 102, 104, 105, 106 (3×), 107 (4×), 108, 109 (2×), 110 (3×), 111 (2×), 117, 118, 120, 121, 122, 124, 125 (2×), 128, 129, 131, 148, 166 % of control under setting [2]; 92, 93, 95, 97 (2×), 98, 99 (3×), 100 (4×), 101, 102 (3×), 105, 106 (3×), 107, 109 (3×), 110, 111 (4×), 112 % of control (5×) (dose: 100.0 mg/kg/injection, schedule: Q04DX002 (ip), vehicle: Klucel (hydroxypropylcellulose) (HPC)); 88 [5 of 6 alive], 95 [2 of 3 alive], 99, 100 [2 of 3 alive], 102, 103 (3×), 104, 105 (4×), 106 (2×), 107, 108 (2×), 109 (2×), 110, 111 (5×), 113, 114, 115, 117 (3×), 118, 121 % of control (2×) (dose: 100.0 mg/kg/injection, schedule: Q04DX003 (ip), vehicle: Klucel (hydroxypropylcellulose) (HPC), evaluated on day 30); 118 % of control (dose: 100.0 mg/kg/injection, schedule: Q04DX003 (ip), vehicle: Klucel (hydroxypropylcellulose) (HPC), evaluated on day 35); 96, 100 (5×), 101 (5×), 103, 104, 105 (5×), 106 (5×), 107, 108 (2×), 111, 116, 118 % of control (dose: 200.0 mg/kg/injection, schedule: Q01DX001 (ip), vehicle: Klucel (hydroxypropylcellulose) (HPC), evaluated on day 30); 104 % of control (dose: 200.0 mg/kg/injection, schedule: Q01DX001 (ip), vehicle: Klucel (hydroxypropylcellulose) (HPC), evaluated on day 35). Besides, the T/C reads like this: (dose: 200.0 mg/kg/injection, schedule: Q01DX005 (ip), vehicle: Klucel (hydroxypropylcellulose) (HPC), evaluated on day 30) 99, 102, 104, 108, 109, 111, 112 (5×), 113 (5×), 114, 115, 116 (3×), 117, 119, 120 (2×), 123 (4×), 127, 131 (2×), 132, 140 % of control; (dose: 200.0 mg/kg/injection, schedule: Q01DX005 (ip), vehicle: Klucel (hydroxypropylcellulose) (HPC), evaluated on day 35) 117 % of control; under setting [3], 87, 94, 96, 98, 99, 100, 100 [2 of 3 alive], 101, 104 (2×), 105 (3×), 107 (2×), 108, 109, 110 (2×), 111, 112, 113 (2×), 115, 116, 118, 126 (2×), 127, 129, 145 % of control [5 of 6 alive]; (dose: 200.0 mg/kg/injection, schedule: Q04DX002 (ip), vehicle: Klucel (hydroxypropylcellulose) (HPC)) 93, 94, 97, 98, 100 (3×), 101, 102 (4×), 103 (2×), 105 (3×), 106 (3×), 107, 108 (2×), 109 (3×), 111 (5×), 112 (2×), 116, 123 % of control; (dose: 200.0 mg/kg/injection, schedule: Q04DX003 (ip), vehicle: Klucel (hydroxypropylcellulose) (HPC), evaluated on day 30) 90, 91, 94 (2×), 96, 100, 101, 102, 103 (3×), 104 (3×), 105 (3×), 106 (4×), 106 [2 of 3 alive], 107, 110, 113 (3×), 114 (4×), 116, 117, 118, 122 % of control; (dose: 200.0 mg/kg/injection, schedule: Q04DX003 (ip), vehicle: Klucel (hydroxypropylcellulose) (HPC), evaluated on day 35) 124 % of control. Further, the T/C (dose: 400.0 mg/kg/injection, schedule: Q01DX001 (ip), vehicle: Klucel (hydroxypropylcellulose) (HPC), evaluated on day 30) is 100 (3×), 101 (2×), 102 (2×), 103 (3×), 104, 105, 106 (4×), 107, 108 (2×), 110 (2×), 111 (2×), 112 (2×), 116, 135, 137 % of control; the T/C (dose: 400.0 mg/kg/injection, schedule: Q01DX001 (ip), vehicle: Klucel (hydroxypropylcellulose) (HPC), evaluated on day 35) was 91 % of control; the T/C (dose: 400.0 mg/kg/injection, schedule: Q01DX005 (ip), vehicle: Klucel (hydroxypropylcellulose) (HPC), evaluated on day 30) was 99, 111, 114, 115 (3×), 116 (3×), 117 (2×), 118 (2×), 120 (4×), 122 (3×), 123 (4×), 125 (2×), 126, 127 (3×), 128, 136, 138 % of control (2×); the T/C (dose: 400.0 mg/kg/injection, schedule: Q01DX005 (ip), vehicle: Klucel (hydroxypropylcellulose) (HPC), evaluated on day 35) is 127 % of control; the T/C under setting [4] was 96, 99, 100 (2×), 101, 102, 104, 105, 106, 107, 108 (2×), 114 (2×), 115 [2 of 3 alive], 118, 121, 125, 126, 128, 129 (2×), 130, 133, 135, 140, 142, 144 (2×), 145 % of control; the T/C (dose: 400.0 mg/kg/injection, schedule: Q04DX002 (ip), vehicle: Klucel (hydroxypropylcellulose) (HPC)) was 94, 100 (3×), 103 (2×), 104 (3×), 105 (4×), 107 (3×), 108, 109 (3×), 110 (2×), 111 (3×), 112 (2×), 113, 115 (2×), 116 (2×), 117, 124, 126 % of control. In addition, the T/C runs as follows: (dose: 400.0 mg/kg/injection, schedule: Q04DX003 (ip), vehicle: Klucel (hydroxypropylcellulose) (HPC), evaluated on day 30) 91, 97, 100, 101 [5 of 6 alive], 102 (2×), 104 (2×), 105 (3×), 106 (2×), 109 (4×), 110 (3×), 111 (2×), 112, 113 (2×), 116 (3×), 117 (2×), 118, 119, 122, 126 % of control; (dose: 400.0 mg/kg/injection, schedule: Q04DX003 (ip), vehicle: Klucel (hydroxypropylcellulose) (HPC), evaluated on day 35) 100 % of control. For the same compound, the survivor count runs as follows: (dose: 50.0 mg/kg/injection, schedule: Q01DX001 (ip), vehicle: Klucel (hydroxypropylcellulose) (HPC)) 3 of 3 and 6 of 6; (dose: 50.0 mg/kg/injection, schedule: Q01DX005 (ip), vehicle: Klucel (hydroxypropylcellulose) (HPC)) 1 of 3; under setting [1], 6 of 6; (dose: 100.0 mg/kg/injection, schedule: Q01DX001 (ip), vehicle: Klucel (hydroxypropylcellulose) (HPC)) 3 of 3 and 6 of 6; under setting [2], 6 of 6; (dose: 200.0 mg/kg/injection, schedule: Q01DX001 (ip), vehicle: Klucel (hydroxypropylcellulose) (HPC)) 3 of 3 and 6 of 6. The survivor count is 3 of 6 and 6 of 6 under setting [3]; 3 of 3 and 6 of 6 (dose: 400.0 mg/kg/injection, schedule: Q01DX001 (ip), vehicle: Klucel (hydroxypropylcellulose) (HPC)); 6 of 6 (2×) under setting [4]; 3 of 3 (dose: 400.0 mg/kg/injection, schedule: Q04DX003 (ip), vehicle: Klucel (hydroxypropylcellulose) (HPC)).
On to `CC(C)NC(=O)c1ccc(C/[N+]([O-])=C/c2ccccc2)cc1`, for which the T/C (dose: 400.0 mg/kg/injection, schedule: Q01DX009 (ip), vehicle: other) was 129 % of control. For the same compound, the survivor count is, setting by setting: (dose: 800.0 mg/kg/injection, schedule: Q01DX009 (ip), vehicle: distilled water + Tween-80) 1 of 4 and 3 of 5; (dose: 1600.0 mg/kg/injection, schedule: Q01DX009 (ip), vehicle: distilled water + Tween-80) 0 of 4.

These data come from PubChem BioAssay AID330 (DTP/NCI, 2004).
